Assay results: the supplement of paper PMC10849652
The other results are listed elsewhere or left out.

Chains of the proteins cited; added tags and fusions are not shown. Lines headed by an entry give the natural chain unless they say otherwise; changes in a name come on top.
UniProt P49588, whole entry, looked up: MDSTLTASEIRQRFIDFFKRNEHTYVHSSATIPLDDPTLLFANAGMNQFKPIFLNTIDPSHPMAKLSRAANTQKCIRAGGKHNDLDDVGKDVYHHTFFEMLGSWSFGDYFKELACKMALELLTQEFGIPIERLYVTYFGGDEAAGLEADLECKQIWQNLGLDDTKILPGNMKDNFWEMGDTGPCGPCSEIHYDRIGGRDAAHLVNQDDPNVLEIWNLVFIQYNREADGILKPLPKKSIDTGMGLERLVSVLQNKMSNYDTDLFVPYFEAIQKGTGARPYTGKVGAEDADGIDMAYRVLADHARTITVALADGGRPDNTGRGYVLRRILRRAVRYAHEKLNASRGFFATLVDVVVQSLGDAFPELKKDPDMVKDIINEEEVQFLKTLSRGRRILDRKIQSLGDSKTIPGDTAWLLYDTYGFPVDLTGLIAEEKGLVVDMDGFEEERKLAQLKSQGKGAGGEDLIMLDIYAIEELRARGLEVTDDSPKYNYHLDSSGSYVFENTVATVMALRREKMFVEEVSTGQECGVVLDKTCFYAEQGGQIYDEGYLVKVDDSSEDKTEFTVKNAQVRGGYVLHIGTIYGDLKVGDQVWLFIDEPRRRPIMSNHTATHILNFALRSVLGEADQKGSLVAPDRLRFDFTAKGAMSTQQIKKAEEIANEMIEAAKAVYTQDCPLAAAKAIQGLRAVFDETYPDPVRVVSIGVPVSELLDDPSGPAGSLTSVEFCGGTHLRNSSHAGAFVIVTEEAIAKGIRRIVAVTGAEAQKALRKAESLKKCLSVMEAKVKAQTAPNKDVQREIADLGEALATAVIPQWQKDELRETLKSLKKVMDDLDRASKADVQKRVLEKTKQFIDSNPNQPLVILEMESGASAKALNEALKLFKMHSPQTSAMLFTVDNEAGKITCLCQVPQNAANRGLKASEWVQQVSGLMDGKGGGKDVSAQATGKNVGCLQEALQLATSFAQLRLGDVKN
UniProt Q2M2I8: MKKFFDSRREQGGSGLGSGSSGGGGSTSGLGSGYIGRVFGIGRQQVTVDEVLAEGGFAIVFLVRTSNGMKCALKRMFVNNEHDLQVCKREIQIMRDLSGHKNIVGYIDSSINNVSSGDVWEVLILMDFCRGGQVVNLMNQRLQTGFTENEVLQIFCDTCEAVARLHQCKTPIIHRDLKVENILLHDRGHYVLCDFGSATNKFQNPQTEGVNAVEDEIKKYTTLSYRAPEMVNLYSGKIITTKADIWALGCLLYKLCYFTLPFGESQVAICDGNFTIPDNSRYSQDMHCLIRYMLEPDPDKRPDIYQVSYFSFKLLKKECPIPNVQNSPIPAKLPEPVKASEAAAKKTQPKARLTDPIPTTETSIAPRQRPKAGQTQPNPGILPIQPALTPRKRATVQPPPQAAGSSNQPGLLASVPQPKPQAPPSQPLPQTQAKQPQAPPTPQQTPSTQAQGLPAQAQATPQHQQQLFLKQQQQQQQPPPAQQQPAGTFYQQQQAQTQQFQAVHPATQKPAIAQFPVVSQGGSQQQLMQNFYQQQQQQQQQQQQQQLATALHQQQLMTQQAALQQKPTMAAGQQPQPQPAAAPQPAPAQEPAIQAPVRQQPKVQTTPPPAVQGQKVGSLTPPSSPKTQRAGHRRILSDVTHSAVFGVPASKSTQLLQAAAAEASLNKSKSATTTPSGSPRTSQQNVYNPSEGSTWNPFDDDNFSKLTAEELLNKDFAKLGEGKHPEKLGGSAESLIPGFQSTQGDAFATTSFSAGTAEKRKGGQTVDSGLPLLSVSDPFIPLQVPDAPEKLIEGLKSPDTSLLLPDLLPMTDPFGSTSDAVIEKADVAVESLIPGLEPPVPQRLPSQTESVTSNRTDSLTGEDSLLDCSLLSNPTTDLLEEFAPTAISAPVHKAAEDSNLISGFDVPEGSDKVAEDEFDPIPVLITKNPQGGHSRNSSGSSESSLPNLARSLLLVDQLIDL
UniProt Q9UG63: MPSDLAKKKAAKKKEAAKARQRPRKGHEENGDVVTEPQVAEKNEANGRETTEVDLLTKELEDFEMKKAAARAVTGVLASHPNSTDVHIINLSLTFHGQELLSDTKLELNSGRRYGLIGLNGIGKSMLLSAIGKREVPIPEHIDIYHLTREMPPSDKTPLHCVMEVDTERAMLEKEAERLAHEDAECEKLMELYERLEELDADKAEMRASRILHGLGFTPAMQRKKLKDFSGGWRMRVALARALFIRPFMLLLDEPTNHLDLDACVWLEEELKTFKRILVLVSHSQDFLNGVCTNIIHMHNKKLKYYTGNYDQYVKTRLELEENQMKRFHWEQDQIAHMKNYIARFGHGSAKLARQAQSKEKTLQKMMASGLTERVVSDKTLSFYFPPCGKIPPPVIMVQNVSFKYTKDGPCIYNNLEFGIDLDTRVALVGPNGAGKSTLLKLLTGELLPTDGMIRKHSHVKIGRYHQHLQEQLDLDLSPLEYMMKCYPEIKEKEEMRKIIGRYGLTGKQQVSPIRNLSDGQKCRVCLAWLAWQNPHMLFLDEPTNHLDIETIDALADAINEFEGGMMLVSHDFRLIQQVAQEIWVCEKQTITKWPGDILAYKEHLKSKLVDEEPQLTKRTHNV
UniProt Q9NX38: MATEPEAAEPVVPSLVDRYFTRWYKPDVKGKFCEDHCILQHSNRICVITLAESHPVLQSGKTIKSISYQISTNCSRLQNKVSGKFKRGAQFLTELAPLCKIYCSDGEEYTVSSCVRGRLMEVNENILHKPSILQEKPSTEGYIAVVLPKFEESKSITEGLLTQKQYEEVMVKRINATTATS
UniProt Q9Y312: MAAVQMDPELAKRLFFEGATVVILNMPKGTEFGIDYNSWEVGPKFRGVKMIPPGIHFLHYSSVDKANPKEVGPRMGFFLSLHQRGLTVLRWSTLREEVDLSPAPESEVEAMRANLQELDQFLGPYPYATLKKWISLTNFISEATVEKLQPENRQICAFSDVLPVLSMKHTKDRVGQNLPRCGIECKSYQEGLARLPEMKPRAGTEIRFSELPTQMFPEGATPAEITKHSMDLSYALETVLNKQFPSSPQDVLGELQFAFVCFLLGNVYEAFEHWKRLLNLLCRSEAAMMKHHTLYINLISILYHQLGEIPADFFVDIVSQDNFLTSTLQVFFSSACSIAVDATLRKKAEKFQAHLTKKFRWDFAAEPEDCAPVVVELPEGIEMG
UniProt Q9NRK6: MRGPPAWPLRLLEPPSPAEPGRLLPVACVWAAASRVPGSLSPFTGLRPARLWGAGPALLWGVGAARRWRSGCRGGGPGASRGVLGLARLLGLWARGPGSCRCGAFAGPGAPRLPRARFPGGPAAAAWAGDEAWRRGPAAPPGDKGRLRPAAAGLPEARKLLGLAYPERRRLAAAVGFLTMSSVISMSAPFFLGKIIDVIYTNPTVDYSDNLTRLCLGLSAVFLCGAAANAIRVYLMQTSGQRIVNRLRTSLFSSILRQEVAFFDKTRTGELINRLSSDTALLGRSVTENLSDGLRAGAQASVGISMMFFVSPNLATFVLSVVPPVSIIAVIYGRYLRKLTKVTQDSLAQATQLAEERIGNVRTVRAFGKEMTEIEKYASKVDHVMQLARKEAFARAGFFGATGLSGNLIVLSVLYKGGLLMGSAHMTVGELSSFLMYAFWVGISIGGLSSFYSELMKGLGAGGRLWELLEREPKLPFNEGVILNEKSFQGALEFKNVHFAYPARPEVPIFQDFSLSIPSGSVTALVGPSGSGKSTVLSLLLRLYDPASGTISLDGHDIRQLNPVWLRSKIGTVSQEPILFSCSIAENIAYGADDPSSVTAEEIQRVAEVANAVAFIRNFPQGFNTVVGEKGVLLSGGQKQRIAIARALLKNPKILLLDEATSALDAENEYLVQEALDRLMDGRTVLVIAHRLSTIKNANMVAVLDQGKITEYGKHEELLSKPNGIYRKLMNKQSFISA
UniProt O75027: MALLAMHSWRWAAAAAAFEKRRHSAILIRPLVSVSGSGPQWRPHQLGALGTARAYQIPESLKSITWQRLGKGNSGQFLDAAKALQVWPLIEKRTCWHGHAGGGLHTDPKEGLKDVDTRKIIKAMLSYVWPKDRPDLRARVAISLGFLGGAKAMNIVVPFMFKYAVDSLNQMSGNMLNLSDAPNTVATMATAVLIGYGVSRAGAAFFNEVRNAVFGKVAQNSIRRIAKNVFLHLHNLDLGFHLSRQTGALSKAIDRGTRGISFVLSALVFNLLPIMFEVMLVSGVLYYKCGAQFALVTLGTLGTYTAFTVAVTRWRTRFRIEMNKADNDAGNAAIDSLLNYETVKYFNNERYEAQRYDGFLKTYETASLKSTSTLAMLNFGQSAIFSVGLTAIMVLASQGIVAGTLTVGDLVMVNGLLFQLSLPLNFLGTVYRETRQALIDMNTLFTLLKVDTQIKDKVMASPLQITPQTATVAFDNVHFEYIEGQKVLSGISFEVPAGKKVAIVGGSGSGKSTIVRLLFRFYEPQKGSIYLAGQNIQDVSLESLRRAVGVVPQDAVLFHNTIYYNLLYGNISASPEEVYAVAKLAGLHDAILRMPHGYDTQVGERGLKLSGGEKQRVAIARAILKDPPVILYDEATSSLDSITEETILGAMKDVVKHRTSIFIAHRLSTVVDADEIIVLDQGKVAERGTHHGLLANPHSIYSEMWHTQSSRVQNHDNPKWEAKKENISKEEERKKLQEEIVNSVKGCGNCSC
UniProt Q13685: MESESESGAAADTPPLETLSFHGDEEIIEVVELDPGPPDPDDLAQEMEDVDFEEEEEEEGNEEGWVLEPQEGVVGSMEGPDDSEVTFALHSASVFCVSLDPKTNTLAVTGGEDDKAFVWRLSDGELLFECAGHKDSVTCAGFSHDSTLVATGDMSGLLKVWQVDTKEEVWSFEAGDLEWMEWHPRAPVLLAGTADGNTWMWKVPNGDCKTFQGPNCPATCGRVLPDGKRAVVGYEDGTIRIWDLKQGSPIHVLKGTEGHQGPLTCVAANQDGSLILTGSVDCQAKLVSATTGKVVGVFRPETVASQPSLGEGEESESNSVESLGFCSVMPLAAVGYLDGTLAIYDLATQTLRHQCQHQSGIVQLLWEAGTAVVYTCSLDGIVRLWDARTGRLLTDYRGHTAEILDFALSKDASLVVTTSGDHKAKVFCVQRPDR
UniProt Q9NPJ3: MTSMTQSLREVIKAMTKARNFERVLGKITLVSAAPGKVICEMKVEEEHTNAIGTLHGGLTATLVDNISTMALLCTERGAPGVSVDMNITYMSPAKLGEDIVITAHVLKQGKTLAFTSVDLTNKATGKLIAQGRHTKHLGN
UniProt Q96QU6: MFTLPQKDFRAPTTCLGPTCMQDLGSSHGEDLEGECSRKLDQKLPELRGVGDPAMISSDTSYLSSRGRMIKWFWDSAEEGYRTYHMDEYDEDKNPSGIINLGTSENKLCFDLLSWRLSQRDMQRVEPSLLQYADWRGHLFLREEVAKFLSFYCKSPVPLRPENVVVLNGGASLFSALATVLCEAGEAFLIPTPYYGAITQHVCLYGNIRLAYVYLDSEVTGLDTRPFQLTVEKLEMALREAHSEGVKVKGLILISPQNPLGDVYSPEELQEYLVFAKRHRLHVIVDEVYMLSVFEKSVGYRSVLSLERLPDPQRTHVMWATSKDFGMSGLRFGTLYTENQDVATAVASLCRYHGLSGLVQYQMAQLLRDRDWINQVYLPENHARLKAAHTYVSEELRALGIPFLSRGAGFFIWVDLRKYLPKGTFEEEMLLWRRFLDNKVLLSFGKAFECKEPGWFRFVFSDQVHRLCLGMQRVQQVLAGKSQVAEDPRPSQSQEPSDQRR
UniProt Q86V21: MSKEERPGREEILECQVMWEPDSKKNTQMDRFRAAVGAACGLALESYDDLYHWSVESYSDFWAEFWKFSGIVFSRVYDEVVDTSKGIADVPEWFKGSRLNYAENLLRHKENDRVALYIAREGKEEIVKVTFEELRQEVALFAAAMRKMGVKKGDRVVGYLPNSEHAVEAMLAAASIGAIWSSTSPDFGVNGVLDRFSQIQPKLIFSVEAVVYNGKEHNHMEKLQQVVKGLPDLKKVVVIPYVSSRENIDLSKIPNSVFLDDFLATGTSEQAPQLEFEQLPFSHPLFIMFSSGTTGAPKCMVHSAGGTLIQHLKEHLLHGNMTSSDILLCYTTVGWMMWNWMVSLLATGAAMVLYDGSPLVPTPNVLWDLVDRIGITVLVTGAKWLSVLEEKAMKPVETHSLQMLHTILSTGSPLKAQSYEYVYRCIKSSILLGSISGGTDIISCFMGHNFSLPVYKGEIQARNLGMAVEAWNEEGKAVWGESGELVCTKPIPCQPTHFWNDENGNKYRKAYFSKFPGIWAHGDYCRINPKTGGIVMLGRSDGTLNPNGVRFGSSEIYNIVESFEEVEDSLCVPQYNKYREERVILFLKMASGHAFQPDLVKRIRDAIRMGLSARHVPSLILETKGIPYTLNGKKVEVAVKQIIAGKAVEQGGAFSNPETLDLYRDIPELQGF

Assays:
Assay in all cases: log2 fold change, soluble protein after heating vs DMSO (PISA); higher = thermal stabilisation; K562 lysate, 10 uM; active = over 0.2 and 3.5 SD of the protein, either way, in both replicates (recomputed)
alvocidib = compound: CN1CC[C@H](c2c(O)cc(O)c3c(=O)cc(-c4ccccc4Cl)oc23)[C@H](O)C1 [alvocidib]
Outline: (§1)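 To prepare the extract, K562 pellets were dounce-homogenised in PBS pH 7.4 with 1 mM MgCl2, giving crude material at 1 mg/mL protein. This was treated with 10 μM compound for 30 min, then heated in aliquots for 3 min over 48°C-58°C before pooling and addition of NP-40 to 0.5% at 4°C. Centrifugation at 21,000xg for 90 min left soluble protein in the supernatant, which TMTpro 16plex LC-MS/MS quantified with equalised channel sums. Results are log-two fold changes in thermal stability compared with solvent controls, from duplicates.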

Tubastatin A = compound: CN1CCc2c(c3ccccc3n2Cc2ccc(C(=O)NO)cc2)C1 [Tubastatin A]
Outline: as §1

[1] = compound: CNC(=O)C1=CC=CC=C1NC2=NC(=NC=C2Cl)NC3=C(C=C(C=C3)N4CCOCC4)OC
Outline: as §1

defactinib = compound: CNC(=O)c1ccc(Nc2ncc(C(F)(F)F)c(NCc3nccnc3N(C)S(C)(=O)=O)n2)cc1 [defactinib]
Outline: as §1

[2] = compound: CNc1nc(-c2ccc3c(N)n[nH]c3c2)cc(N2C[C@@H](C(=O)NC3CCCCC3)CC[C@H]2C)n1
Outline: as §1

encorafenib = compound: COC(=O)N[C@@H](C)CNc1nccc(-c2cn(C(C)C)nc2-c2cc(Cl)cc(NS(C)(=O)=O)c2F)n1 [encorafenib]
Outline: as §1

[3] = compound: COC(=O)[C@H](CCSC)NC(=O)C1=C(C=C(C=C1)NC[C@H](CS)N)C2=CC=CC=C2
Outline: as §1

alisertib = compound: COc1cc(Nc2ncc3c(n2)-c2ccc(Cl)cc2C(c2c(F)cccc2OC)=NC3)ccc1C(=O)O [alisertib]
Outline: as §1

[4] = compound: COc1cc2nc(-c3cc(F)ccc3O)nc(N[C@@H]3CNC[C@H]3C(C)(C)O)c2cc1OC
Outline: as §1

gefitinib = compound: COc1cc2ncnc(Nc3ccc(F)c(Cl)c3)c2cc1OCCCN1CCOCC1 [gefitinib]
Outline: as §1

lapatinib = compound: CS(=O)(=O)CCNCc1ccc(-c2ccc3ncnc(Nc4ccc(OCc5cccc(F)c5)c(Cl)c4)c3c2)o1 [lapatinib]
Outline: as §1

pictilisib = compound: CS(=O)(=O)N1CCN(Cc2cc3nc(-c4cccc5[nH]ncc45)nc(N4CCOCC4)c3s2)CC1 [pictilisib]
Outline: as §1

crizotinib = compound: C[C@@H](Oc1cc(-c2cnn(C3CCNCC3)c2)cnc1N)c1c(Cl)ccc(F)c1Cl [crizotinib]
Outline: as §1

[5] = compound: C[C@H](C1=CC=C(C=C1)C(=O)NC2=C3C=CNC3=NC=C2)N
Outline: as §1

duvelisib = compound: C[C@H](Nc1ncnc2nc[nH]c12)c1cc2cccc(Cl)c2c(=O)n1-c1ccccc1 [duvelisib]
Outline: as §1

gandotinib = compound: Cc1cc(Nc2cc(CN3CCOCC3)c3nc(C)c(Cc4ccc(Cl)cc4F)n3n2)n[nH]1 [gandotinib]
Outline: as §1

tozasertib = compound: Cc1cc(Nc2cc(N3CCN(C)CC3)nc(Sc3ccc(NC(=O)C4CC4)cc3)n2)n[nH]1 [tozasertib]
Outline: as §1

doramapimod = compound: Cc1ccc(-n2nc(C(C)(C)C)cc2NC(=O)Nc2ccc(OCCN3CCOCC3)c3ccccc23)cc1 [doramapimod]
Outline: as §1

bafetinib = compound: Cc1ccc(NC(=O)c2ccc(CN3CC[C@H](N(C)C)C3)c(C(F)(F)F)c2)cc1Nc1nccc(-c2cncnc2)n1 [bafetinib]
Outline: as §1

[6] = compound: Cc1cccc(CC(=O)N2CCc3c2ccc(-c2cn(C)c4ncnc(N)c24)c3F)n1
Outline: as §1

Measured: log2 fold change

ABCC4 (UniProt O15439)
inactive: alvocidib -0.02 | Tubastatin A 0.021 | [1] 0.015 | defactinib -0.01 | [2] 0.018 | encorafenib 0.007 | [3] 0.005 | alisertib -0.017 | [4] 0.026 | gefitinib 0.008 | lapatinib -0.105 | pictilisib 0.019 | crizotinib 0.014 | [5] -0.069 | duvelisib 0.005 | gandotinib 0.035 | tozasertib 0.028 | doramapimod 0.007 | bafetinib -0.056 | [6] 0.001

AARS (UniProt P49588)
inactive: alvocidib 0 | Tubastatin A -0.011 | [1] -0.016 | defactinib -0.011 | [2] -0.024 | encorafenib -0.031 | [3] 0.023 | alisertib 0.01 | [4] -0.009 | gefitinib -0.018 | lapatinib -0.015 | pictilisib 0.011 | crizotinib 0.008 | [5] 0 | duvelisib -0.01 | gandotinib -0.039 | tozasertib -0.007 | doramapimod -0.01 | bafetinib 0.008 | [6] -0.004

ABL2 (UniProt P42684)
inactive: alvocidib 0.007 | Tubastatin A -0.04 | [1] 0.082 | defactinib 0.066 | [2] -0.108 | encorafenib 0.092 | [3] -0.068 | alisertib -0.123 | [4] -0.009 | gefitinib -0.176 | lapatinib -0.053 | pictilisib -0.029 | crizotinib 0.367 | [5] -0.216 | duvelisib 0.079 | gandotinib 0.228 | tozasertib 0.273 | doramapimod -0.04 | bafetinib 0.439 | [6] 0

AAK1 (UniProt Q2M2I8)
inactive: alvocidib 0.063 | Tubastatin A 0.049 | [1] 0.454 | defactinib 0.116 | [2] 0.308 | encorafenib -0.149 | [3] -0.081 | alisertib -0.046 | [4] -0.047 | gefitinib 0.039 | lapatinib -0.087 | pictilisib 0.047 | crizotinib 0.248 | [5] 0.411 | duvelisib -0.005 | gandotinib 0.358 | tozasertib 0.055 | doramapimod -0.018 | bafetinib -0.003 | [6] -0.084

ABHD5 (UniProt Q8WTS1)
inactive: alvocidib 0.066 | Tubastatin A -0.014 | [1] -0.014 | defactinib -0.044 | [2] -0.12 | encorafenib -0.067 | [3] -0.046 | alisertib 0.006 | [4] 0.079 | gefitinib 0.013 | lapatinib -0.086 | pictilisib 0.011 | crizotinib -0.052 | [5] 0.021 | duvelisib -0.012 | gandotinib -0.062 | tozasertib 0.043 | doramapimod -0.042 | bafetinib 0.037 | [6] -0.006

ABCF2 isoform 2 (UniProt Q9UG63)
inactive: alvocidib 0.004 | Tubastatin A -0.169 | [1] -0.001 | defactinib -0.039 | [2] 0.005 | encorafenib -0.005 | [3] 0.08 | alisertib 0.014 | [4] 0.025 | gefitinib -0.02 | lapatinib -0.038 | pictilisib -0.005 | crizotinib -0.011 | [5] -0.001 | duvelisib 0.021 | gandotinib -0.097 | tozasertib 0.057 | doramapimod -0.002 | bafetinib -0.025 | [6] -0.024

ABITRAM (UniProt Q9NX38)
inactive: alvocidib -0.01 | Tubastatin A -0.005 | [1] -0.018 | defactinib 0.047 | [2] -0.008 | encorafenib 0.006 | [3] -0.059 | alisertib -0.048 | [4] -0.127 | gefitinib 0.006 | lapatinib -0.041 | pictilisib -0.046 | crizotinib 0.004 | [5] -0.154 | duvelisib -0.02 | gandotinib 0.042 | tozasertib 0.019 | doramapimod -0.012 | bafetinib -0.043 | [6] 0.023

ABT1 (UniProt Q9ULW3)
inactive: alvocidib -0.01 | Tubastatin A -0.024 | [1] -0.118 | defactinib -0.015 | [2] 0.013 | encorafenib -0.016 | [3] -0.003 | alisertib 0.012 | [4] -0.113 | gefitinib -0.002 | lapatinib 0.032 | pictilisib -0.068 | crizotinib -0.126 | [5] -0.017 | duvelisib 0.028 | gandotinib -0.016 | tozasertib 0.048 | doramapimod 0.015 | bafetinib 0.05 | [6] 0.069

ACACB (UniProt O00763)
inactive: alvocidib -0.04 | Tubastatin A -0.153 | [1] 0.007 | defactinib 0.019 | [2] -0.043 | encorafenib 0.127 | [3] -0.156 | alisertib 0.016 | [4] 0.006 | gefitinib 0.006 | lapatinib -0.032 | pictilisib -0.029 | crizotinib -0.103 | [5] -0.113 | duvelisib 0.032 | gandotinib 0.021 | tozasertib 0.072 | doramapimod 0.054 | bafetinib -0.113 | [6] 0.165

AAR2 (UniProt Q9Y312)
inactive: alvocidib 0.044 | Tubastatin A 0.021 | [1] -0.036 | defactinib -0.009 | [2] 0.023 | encorafenib 0.038 | [3] -0.012 | alisertib 0.033 | [4] -0.009 | gefitinib -0.029 | lapatinib -0.011 | pictilisib 0.012 | crizotinib 0.007 | [5] 0.006 | duvelisib 0.027 | gandotinib -0.016 | tozasertib 0.014 | doramapimod -0.007 | bafetinib -0.078 | [6] 0.006

ABCB10 (UniProt Q9NRK6)
inactive: alvocidib -0.023 | Tubastatin A 0.074 | [1] 0.068 | defactinib 0.022 | [2] -0.038 | encorafenib -0.003 | [3] 0.019 | alisertib 0.007 | [4] -0.032 | gefitinib 0.021 | lapatinib 0.063 | pictilisib -0.014 | crizotinib -0.018 | [5] -0.033 | duvelisib -0.028 | gandotinib 0.095 | tozasertib -0.005 | doramapimod 0.033 | bafetinib -0.011 | [6] 0.001

ABCB7 isoform 2 (UniProt O75027)
inactive: alvocidib 0.014 | Tubastatin A 0.009 | [1] -0.08 | defactinib -0.065 | [2] -0.088 | encorafenib -0.028 | [3] 0.064 | alisertib 0.048 | [4] 0.01 | gefitinib -0.07 | lapatinib -0.074 | pictilisib -0.041 | crizotinib 0 | [5] -0.086 | duvelisib 0.002 | gandotinib -0.244 | tozasertib 0.044 | doramapimod -0.03 | bafetinib 0 | [6] 0.114

2 entries drawn at random from the list so far:
ABCB7 isoform 2 (UniProt O75027)
inactive: alvocidib 0.014 | Tubastatin A 0.009 | [1] -0.08 | defactinib -0.065 | [2] -0.088 | encorafenib -0.028 | [3] 0.064 | alisertib 0.048 | [4] 0.01 | gefitinib -0.07 | lapatinib -0.074 | pictilisib -0.041 | crizotinib 0 | [5] -0.086 | duvelisib 0.002 | gandotinib -0.244 | tozasertib 0.044 | doramapimod -0.03 | bafetinib 0 | [6] 0.114

ABL2 (UniProt P42684)
inactive: alvocidib 0.007 | Tubastatin A -0.04 | [1] 0.082 | defactinib 0.066 | [2] -0.108 | encorafenib 0.092 | [3] -0.068 | alisertib -0.123 | [4] -0.009 | gefitinib -0.176 | lapatinib -0.053 | pictilisib -0.029 | crizotinib 0.367 | [5] -0.216 | duvelisib 0.079 | gandotinib 0.228 | tozasertib 0.273 | doramapimod -0.04 | bafetinib 0.439 | [6] 0

(cont.)

AAMP (UniProt Q13685)
inactive: alvocidib 0.012 | Tubastatin A 0.045 | [1] -0.009 | defactinib -0.041 | [2] 0.019 | encorafenib -0.008 | [3] -0.022 | alisertib -0.019 | [4] 0.01 | gefitinib -0.021 | lapatinib -0.04 | pictilisib -0.022 | crizotinib -0.007 | [5] 0.026 | duvelisib 0.008 | gandotinib -0.019 | tozasertib -0.001 | doramapimod 0.023 | bafetinib -0.04 | [6] -0.069

ACOT13 (UniProt Q9NPJ3)
inactive: alvocidib 0.008 | Tubastatin A 0.061 | [1] -0.029 | defactinib 0 | [2] -0.009 | encorafenib -0.012 | [3] -0.012 | alisertib -0.039 | [4] 0.011 | gefitinib -0.036 | lapatinib -0.024 | pictilisib -0.017 | crizotinib 0.018 | [5] 0.02 | duvelisib 0.022 | gandotinib 0.001 | tozasertib -0.003 | doramapimod 0.016 | bafetinib 0.055 | [6] -0.045

ACCS (UniProt Q96QU6)
inactive: alvocidib -0.063 | Tubastatin A 0 | [1] -0.022 | defactinib -0.121 | [2] 0.212 | encorafenib 0.155 | [3] -0.202 | alisertib 0.024 | [4] 0.035 | gefitinib -0.104 | lapatinib -0.035 | pictilisib -0.041 | crizotinib -0.169 | [5] -0.209 | duvelisib -0.09 | gandotinib 0.198 | tozasertib -0.028 | doramapimod -0.037 | bafetinib -0.271 | [6] 0.39

AACS (UniProt Q86V21)
inactive: alvocidib 0 | Tubastatin A -0.056 | [1] 0.019 | defactinib 0 | [2] -0.101 | encorafenib -0.024 | [3] 0.058 | alisertib 0.015 | [4] 0.013 | gefitinib -0.012 | lapatinib 0.055 | pictilisib -0.019 | crizotinib -0.061 | [5] 0.013 | duvelisib 0.053 | gandotinib -0.034 | tozasertib 0.081 | doramapimod 0.019 | bafetinib -0.027 | [6] 0.073
